Reference: PubChem BioAssay AID743255 (National Center for Advancing Translational Sciences (NCATS), 2014)
Screen size: about 390,000 compounds; about 910 (0.23%) were called active. Inconclusive results, whose numbers are uncertain, are shown with a selection of clear calls. The call rests on the fitted dose curve; in most records, active means well fitted inhibition curve with a large enough effect; inconclusive means small, poorly fitted or top-dose-only effect; inactive means no such curve, though single readings can be large or run the other way. Potencies beside an inconclusive call are fits to weak or partial responses and may not hold up.

Amino acid sequences for entries named in this document (tags omitted). A change or cut given only in a name is not applied to a line headed by its entry.
UniProt O94782: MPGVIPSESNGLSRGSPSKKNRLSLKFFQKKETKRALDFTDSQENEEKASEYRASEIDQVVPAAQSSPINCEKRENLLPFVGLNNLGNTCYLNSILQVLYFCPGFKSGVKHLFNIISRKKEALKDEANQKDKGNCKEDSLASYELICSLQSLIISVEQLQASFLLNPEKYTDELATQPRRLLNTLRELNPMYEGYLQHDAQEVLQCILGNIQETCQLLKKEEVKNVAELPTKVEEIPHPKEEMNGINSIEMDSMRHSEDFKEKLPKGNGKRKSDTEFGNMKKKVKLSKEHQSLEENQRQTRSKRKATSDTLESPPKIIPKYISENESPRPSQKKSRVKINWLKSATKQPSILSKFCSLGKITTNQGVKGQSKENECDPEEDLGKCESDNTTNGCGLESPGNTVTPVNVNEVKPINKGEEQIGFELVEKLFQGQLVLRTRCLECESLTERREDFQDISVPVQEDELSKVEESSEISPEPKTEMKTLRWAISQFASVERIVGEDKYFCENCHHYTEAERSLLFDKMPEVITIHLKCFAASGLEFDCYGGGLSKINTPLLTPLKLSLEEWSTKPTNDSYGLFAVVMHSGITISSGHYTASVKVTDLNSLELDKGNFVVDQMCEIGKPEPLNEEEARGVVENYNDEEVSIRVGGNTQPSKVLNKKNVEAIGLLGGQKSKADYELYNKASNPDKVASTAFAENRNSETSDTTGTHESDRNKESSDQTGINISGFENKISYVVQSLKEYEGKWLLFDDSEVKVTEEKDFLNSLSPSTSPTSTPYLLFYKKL

Target: Ubiquitin carboxyl-terminal hydrolase 1 (Homo sapiens) (UniProt O94782)
Experiment: Inhibitors of USP1/UAF1: Primary Screen; further: nearly all actives have a fitted effect of over 60% in size
Conditions: recombinant USP1/UAF1, Ub-Rhodamine cleavage fluorescence; series mostly up to 57.1 µM
In short: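 High-throughput fluorogenic screen: 1nM USP1/UAF1 complex, Ub-Rho substrate 150nM final, 50mM HEPES pH 7.8 with 0.5mM EDTA, 0.1 mg/ml BSA, 1mM TCEP and 0.01% Tween-20.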
Potency means the concentration at half of the fitted maximal effect.

Potency, inconclusive:
Cc1ccc(N=C2C(=O)Nc3ccc(Br)cc32)cc1 35.5 µM [inhibitor, partial curve]
Cc1ccc(SC[C@H](CC(C)C)N2CCN(CCc3ccccc3)CCC2=O)cc1 14.1 µM [inhibitor, partial curve]
CCCOc1ccc(C(=O)Nc2cc(-c3nc4cc(C)cc(C)c4o3)ccc2C)cc1 22.4 µM [inhibitor, partial curve, poor fit]
Cc1ccc(N(C)S(=O)(=O)c2ccc(-c3cc(C)no3)s2)cc1 70.8 µM [inhibitor, partial curve, poor fit]
Cc1cc(C)c2c(-n3cccc3)c(C(=O)NCCCN3CCCCC3C)sc2n1 (centres undefined) 2.82 µM [inhibitor, partial curve, poor fit]
O=C(c1ccccc1)N1CCN(S(=O)(=O)c2cccc(NS(=O)(=O)c3ccccc3)c2)CC1 31.6 µM [inhibitor, partial curve, poor fit]
COc1ccc(/C=C/C(=O)C2CC2)cc1COc1c(C)cccc1C 31.6 µM [inhibitor, partial curve]
Cc1ccc(-c2csc(/C(C#N)=C/c3ccccc3Cl)n2)cc1 3.98 µM [inhibitor, full curve, poor fit]
Clc1cccc(Nc2ncnc3ccc(Br)cc23)c1 39.8 µM [inhibitor, partial curve, poor fit]
O=C(O)CCNc1ccc(NCCC(=O)O)c2c1C(=O)c1ccccc1C2=O 50.1 µM [inhibitor, partial curve, poor fit]
COc1cccc(C2C(C(=O)Nc3ccccc3OC)=C(C)Nc3nc4ccccc4n32)c1 (centres undefined) 0.398 µM [inhibitor, full curve, poor fit]
Oc1ccc(/C=N/N2CCCCC2)c(O)c1O 35.5 µM [inhibitor, partial curve]
Cc1ccc(C)c(N2CCN(C(=O)CCc3nc(-c4ccccc4C)no3)CC2)c1 50.1 µM [inhibitor, partial curve]
Cc1noc(-c2ccc(Cl)cc2)c1C(=O)O/N=C(\N)c1ccc(C(C)(C)C)cc1 5.01 µM [inhibitor, partial curve, poor fit]
Cc1cc(=O)c2cc(C(=O)Nc3ccccc3)ccc2[nH]1 17.8 µM [inhibitor, partial curve]
Cc1ccc(Cn2c(C(C)Nc3nc(-c4ccc(F)cc4)cs3)nc3cc(C(=O)NCCCO)ccc32)cc1 (centres undefined) 0.282 µM [inhibitor, full curve]
COc1ccc(C(=O)NCc2nnc(SCC(=O)Nc3ccccc3OC)n2C)cc1 31.6 µM [inhibitor, partial curve, poor fit]
O=C(Nc1cc(NC(=O)c2ccccc2Cl)ccc1Cl)c1ccccc1 50.1 µM [inhibitor, partial curve, poor fit]
COc1ccc(-n2nc3c(c2NC(=O)Cc2cccc(C)c2)CS(=O)C3)cc1 (centres undefined) 39.8 µM [inhibitor, partial curve]
CCOC(=O)C1CCN(C(=O)c2ccc3c(=O)n4nc(Nc5ccccc5OC)sc4nc3c2)CC1 0.398 µM [inhibitor, full curve, poor fit]
COc1ccc(CNC(=O)CN2C(=O)COc3ccc(S(=O)(=O)NC4CCCC4)cc32)cc1 1 µM [inhibitor, partial curve, poor fit]
O=C(O)CC(C(=O)O)N1C(=O)/C(=C/C=C/c2ccco2)SC1=S (centres undefined) 44.7 µM [inhibitor, single point]
Cc1ccc(C(=O)N2CCCCC2C(=O)O)cc1S(=O)(=O)N1CCCCC1 (centres undefined) 7.94 µM [inhibitor, partial curve, poor fit]
Cc1ccc(CNc2ncnc3c2nc2n3CCCC2)cc1 11.2 µM [inhibitor, partial curve, poor fit]
Cc1ccc(C2NC(=O)c3c(sc4c3CCN(C)C4)N2)o1 (centres undefined) 35.5 µM [inhibitor, single point]
CCc1ccc(NC(=O)Nc2c(C)n(C)n(-c3ccccc3)c2=O)cc1 7.08 µM [inhibitor, full curve, poor fit]
CC[C@H](C)[C@H]1CNC(=O)C(=O)N1CC1CCN(CCCc2ccc(OC)c(OC)c2)CC1 39.8 µM [inhibitor, partial curve, poor fit]
COc1ccc(OC)c(NC(=O)COC(=O)C2CCCCC2)c1 6.31 µM [inhibitor, full curve]
O=C(NC(=S)Nc1ccc(Oc2ccccc2)cc1)c1ccc(Cl)cc1 31.6 µM [inhibitor, single point]
O=C(NCc1ccc(C(F)(F)F)cc1)C1CC(c2c(Cl)cccc2Cl)=NO1 (centres undefined) 0.282 µM [inhibitor, full curve, poor fit]
CC(=O)c1cccc(NC2c3ncccc3C(=O)N2Cc2ccco2)c1 (centres undefined) 6.31 µM [inhibitor, single point]
CCN(CC)c1ccc(N=Cc2cc(Br)ccc2O)cc1 31.6 µM [inhibitor, partial curve]
Cc1ccc(CS(=O)(=O)c2cn(CC(=O)N(C)c3ccccc3)c3ccccc23)cc1 0.631 µM [inhibitor, full curve, poor fit]
Cc1nc2scc(C)n2c(=O)c1S(=O)(=O)NCc1ccccc1Cl 6.31 µM [inhibitor, full curve]
O=C(c1nc(-c2ccc(Cl)cc2)n2c1CCCCC2)N1CCN(c2ccccc2F)CC1 79.4 µM [inhibitor, partial curve, poor fit]
CCOC(=O)C1CCN(C(=O)Nc2ccc3nc(-c4ccco4)c(-c4ccco4)nc3c2)CC1 39.8 µM [inhibitor, partial curve]
O=C(O)c1cccc(S(=O)(=O)Nc2cccc3ccccc23)c1 28.2 µM [inhibitor, partial curve]
CCN(C(=O)COC(=O)c1c(C)noc1C)C1CCS(=O)(=O)C1 (centres undefined) 0.447 µM [inhibitor, full curve, poor fit]
COc1ccc(S(=O)(=O)N2CCC(C(=O)NC3CC3)CC2)cc1C 0.708 µM [inhibitor, full curve, poor fit]
CCC(CC)C(=O)Nc1ccc(OCc2cc(=O)n3ccsc3n2)cc1 44.7 µM [inhibitor, partial curve, poor fit]
O=C(CN1CCCc2ccccc21)Nc1cc(S(=O)(=O)N2CCCC2)ccc1Cl 44.7 µM [inhibitor, partial curve]
Cc1ccc2ncc(C(=O)NCc3ccccc3Cl)c(=O)n2c1 4.47 µM [inhibitor, single point]
CCCCNS(=O)(=O)c1ccc2c(c1)oc(=O)n2CC(=O)OCC 1.58 µM [inhibitor, full curve, poor fit]
COC(=O)c1ccc(NC(=O)c2ccc(NC(=O)c3ccco3)cc2)cc1 35.5 µM [inhibitor, partial curve]
CC(C)(C)CN1CCNC[C@H]1Cc1cccc2ccccc12 0.126 µM [inhibitor, full curve, poor fit]
COc1cc(CC(=O)N2CCN(S(=O)(=O)c3ccc(C(C)C)cc3)CC2)cc(OC)c1OC 5.01 µM [inhibitor, partial curve, poor fit]

An excerpt from above in order of count of non-hydrogen atoms, high to low.
Potency, inconclusive:
O=C(CN1CCCc2ccccc21)Nc1cc(S(=O)(=O)N2CCCC2)ccc1Cl 44.7 µM [inhibitor, partial curve]
COc1ccc(-n2nc3c(c2NC(=O)Cc2cccc(C)c2)CS(=O)C3)cc1 (centres undefined) 39.8 µM [inhibitor, partial curve]
CCCCNS(=O)(=O)c1ccc2c(c1)oc(=O)n2CC(=O)OCC 1.58 µM [inhibitor, full curve, poor fit]
Cc1ccc(CNc2ncnc3c2nc2n3CCCC2)cc1 11.2 µM [inhibitor, partial curve, poor fit]

Following part.

Potency, inactive:
CCOc1ccc(NC(=O)CN2C(=O)C(c3ccccc3)=NC23CCC(C)CC3)cc1 (centres undefined)
CCOC(=O)c1ccc(CN(Cc2ccc(F)cc2)S(=O)(=O)c2cc(C(=O)Nc3cccc(C(F)(F)F)c3)ccc2F)cc1
Cc1cc(NC(=O)CSc2nnc(C3COc4ccccc4O3)n2N)no1 (centres undefined)
CCOC(=O)c1nn(-c2ccc(C)c(C)c2)c(=O)c2c(N)scc12
Cc1nc(-c2ccc(O)c(O)c2)cs1
CCNC(=O)c1ccccc1-c1nc(-c2ccccc2Cl)no1
COc1cc(Cl)ccc1OCc1cc(C(=O)N(C)CCc2cnn(C)c2)no1
CC1=NN(c2ccccc2)C(=O)/C1=C\c1cc(C)n(-c2cccnc2)c1C
O=C(Nc1ccc(F)cc1)c1cccn1-c1nnc(N2CCCCC2)s1
COc1ccc(-c2cnnc(N/N=C/c3ccc(O)cc3)n2)cc1
O=c1c2sc3ccccc3c2n(Cc2cccc(C(F)(F)F)c2)c(=O)n1Cc1ccco1
Cc1ccc(C(=O)N/C(=C/c2ccco2)C(=O)NCC2CCCO2)cc1 (centres undefined)
O=c1[nH]c(CSc2nnc(Nc3ccccc3)s2)nc2ccccc12
Cc1noc(C)c1S(=O)(=O)Nc1ccc(C(=O)Nc2ccc(Br)cc2)cc1
CC1CCCC/C1=N\Nc1ccc(S(N)(=O)=O)cc1[N+](=O)[O-] (centres undefined)
Cc1cc(C(=O)CSc2nnc(-c3ccco3)o2)c(C)n1-c1ccc2c(c1)OCCO2
CN(C(=O)COC(=O)C1c2ccccc2Oc2ccccc21)C1CCS(=O)(=O)C1 (centres undefined)
Cc1cc(NC(=O)CN(C)CCOc2ccccc2)ccc1Br

Reprinted at random: two entries already listed.
Potency, inactive:
O=c1[nH]c(CSc2nnc(Nc3ccccc3)s2)nc2ccccc12
CN(C(=O)COC(=O)C1c2ccccc2Oc2ccccc21)C1CCS(=O)(=O)C1 (centres undefined)
